From PubChem BioAssay AID504444 (National Center for Advancing Translational Sciences (NCATS), 2011)
Out of some 360,000 compounds screened, about 7,500 (2.1%) were called active. The inconclusive results got no clear call from the source; some entries with a clear call stand among them for comparison. Calls come from the whole dose curve; as a rule, active = well fitted inhibition curve with a large enough effect; inconclusive = small, poorly fitted or top-dose-only effect, or effect the other way; inactive = flat fitted curve, though single readings scatter. Potencies of inconclusive entries are doubtful fits and often do not repeat.

Experiment: Nrf2 qHTS screen for inhibitors; note: nearly all actives have a fitted effect of over 60% in size
Conditions: A549 ARE-Fluc reporter, luciferase luminescence, 18-24 h; series mostly up to 46 µM
In short: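 In this cell-based qHTS, ARE-driven firefly luciferase in A549 cells reports Nrf2 activity; the luminescent signal after BugLite lysis is the measured value, with a prior CellTiter-Fluor read for cell health.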
Potency is the fitted concentration of half-maximal effect.

| Structure (SMILES) | Potency |
| --- | --- |
| N#Cc1ccc(CN2CCN(C(=O)CCNS(=O)(=O)c3ccc(F)c(Cl)c3)CC2)cc1 | inconclusive: 11.6 µM [falling, partial curve, poor fit] |
| Cc1cccc(NC(=O)CCCc2ccccc2)c1 | inconclusive: 11.6 µM [activator, partial curve] |
| O=C(COc1ccc2ccccc2c1Br)Nc1ccncc1 | inconclusive: 5.8 µM [falling, full curve] |
| COc1ccccc1CCNS(=O)(=O)c1cc2c3c(c1)C(C)C(=O)N3CCC2 (stereo not given) | inconclusive: 4.61 µM [falling, single point] |
| CCCc1cc(C(=O)Nc2ccc(C(=O)c3ccccc3)cc2)n(C)n1 | active: 20.6 µM |
| COc1ccccc1C(=O)N1CCN(Cc2cc(=O)oc3cc(C)ccc23)CC1 | inactive |
| Cc1cc(C(=O)N/N=C/c2ccc(-c3ccc([N+](=O)[O-])cc3Cl)o2)n[nH]1 | inconclusive: 25.9 µM [falling, partial curve, poor fit] |
| COc1cc(/C=C2\SC(=S)N(NC(=O)c3ccccc3O)C2=O)ccc1O | inactive |
| Cc1ccc(C(=O)Cc2nc3ccccc3[nH]2)cc1 | inconclusive: 2.06 µM [activator, full curve, poor fit] |
| CC12CCC=CC1C(c1ccc(F)c(Br)c1)N(Cc1ccccc1)C2=O (stereo not given) | inconclusive: 14.6 µM [falling, single point] |
| CCOC(=O)C1CCN(C(=O)c2ccc(S(=O)(=O)Nc3ccccc3Cl)cc2)CC1 | inconclusive: 32.6 µM [falling, partial curve, poor fit] |
| COc1ccc(C2C3=C(CC(C)(C)CC3=O)Nc3c2c(=O)n(C)c(=O)n3C)cc1OC (stereo not given) | inactive |
| Cc1[nH]c2ccccc2c1/C=N/NC(N)=S | inactive |
| CCc1ccc([C@@H]2CC=C(C(=O)O)[C@H](c3ccc(F)cc3)N2S(=O)(=O)c2ccc(C)cc2)cc1 | inconclusive: 14.6 µM [falling, partial curve, poor fit] |
| O=C(c1ccccc1)c1ccc2ccccc2c1 | inconclusive: 29.1 µM [activator, single point] |
| CCOc1ccccc1N1CCN(C(=O)CNC(=O)c2ccccc2F)CC1 | inconclusive: 14.6 µM [activator, partial curve, poor fit] |
| Cc1cc(C)nc(OC(C(=O)O)C(OCCC(C)C)(c2ccccc2)c2ccccc2)n1 (stereo not given) | inconclusive: 29.1 µM [falling, single point] |
| O=C(Nc1ccc(F)c(Cl)c1)C1CCCN(C2=NS(=O)(=O)c3ccccc32)C1 (stereo not given) | inconclusive: 11.6 µM [falling, partial curve] |
| O=c1onc(-c2ccccc2)n1-c1cc(Cl)cc(Cl)c1 | inconclusive: 25.9 µM [activator, single point] |
| CC1(C)CC(=O)c2cnc(NC(=O)c3ccco3)nc2C1 | inconclusive: 3.26 µM [activator, partial curve, poor fit] |
| COc1ccc(-c2c3c(=O)n(C)c(=O)n(C)c3cn2-c2cc(OC)ccc2OC)cc1 | inconclusive: 29.1 µM [falling, single point] |
| CCCn1c(NC(=O)c2cccc(C)c2C)nc2ccccc21 | inconclusive: 29.1 µM [falling, single point] |

| Structure (SMILES) | Potency |
| --- | --- |
| O=C(Nc1nc2ccccc2[nH]1)c1ccc(OC(F)F)cc1 | inconclusive: 2.31 µM [activator, partial curve] |
| COc1cccc(OCc2cc(C(=O)NC3CCOCC3)no2)c1 | inconclusive: 3.26 µM [activator, full curve, poor fit] |
| S=C(Nc1ccccc1)Nc1cc(Cl)ccc1Oc1ccccc1 | inconclusive: 35.5 µM [falling, single point] |
| COc1cc(C=c2c3ccccc3n3c2cc(-c2ccccc2)[n+]3C)cc(OC)c1OC | active: 16.4 µM |
| COc1ccc(C(=O)OCC(=O)NC2CCCC2)c(OC)c1OC | inconclusive: 20.6 µM [falling, single point] |
| O=C1CCCN1c1ccc(S(=O)(=O)NCc2ccc(F)cc2)cc1 | inconclusive: 23.1 µM [falling, single point] |
| O=C1[C@@H]2Cc3c([nH]c4ccccc34)C(c3ccc([N+](=O)[O-])cc3)N2C(=O)CN1C1CC1 (stereo not given in full) | inconclusive: 14.6 µM [falling, partial curve, poor fit] |
| CCCc1cc(=O)oc2c(C)c(OCC(=O)Nc3ccccn3)ccc12 | inconclusive: 6.51 µM [activator, partial curve] |
| COC(=O)c1sccc1NC(=O)c1c(F)c(F)c(F)c(F)c1F | inactive |
| COC(=O)c1c(NC(=O)c2cccc([N+](=O)[O-])c2)sc(C(N)=O)c1C | inconclusive: 16.4 µM [falling, partial curve, poor fit] |
| COc1ccc2nc(SCc3ccccc3C)nc(C)c2c1 | inactive |
| CN1CCN(c2nc3ccccc3nc2C(C#N)S(=O)(=O)c2ccccc2)CC1 (stereo not given) | inconclusive: 29.1 µM [falling, single point] |
| Cc1c(/C(O)=C2/C(=O)C(=O)N(Cc3cccnc3)C2c2ccccn2)cnn1-c1ccccc1 (stereo not given) | inconclusive: 23.1 µM [activator, single point] |
| CC(=O)Nc1nnc(SCC(=O)NC2CCCC2)s1 | inactive |
| Cc1ccc2c(c1)cc(C(=O)NCc1ccccc1)n2C | inconclusive: 6.51 µM [activator, partial curve] |
| COc1cccc(OC)c1C(=O)NNC(=O)c1cccc(COc2ccc3c(c2)CCC3)c1 | inconclusive: 1.16 µM [activator, full curve, poor fit] |
| CCn1c2ccccc2c2cc(NC(=O)COc3ccccc3)ccc21 | inconclusive: 25.9 µM [falling, single point] |
| COc1cc(-c2nc3ccc(C)cn3c2NCc2ccccc2)ccc1SC1CCCCC1 | inconclusive: 29.1 µM [falling, single point] |
| CCCc1cc(-c2ccc(O)c(OCC)c2)c(C#N)c(N)n1 | inactive |
| O=C(Nc1ccc(N2CCN(C(=O)c3ccco3)CC2)c(Cl)c1)c1c(F)c(F)c(F)c(F)c1F | inactive |
| Cc1nn(Cc2ccccc2)c(Cl)c1/C=C/C(=O)OC(C(=O)NC(N)=O)C(C)C (stereo not given) | inconclusive: 25.9 µM [falling, single point] |
| CCN(CC(=O)Nc1c(F)cccc1F)C(=O)c1cccc(S(=O)(=O)N2CCCc3ccccc32)c1 | active: 25.9 µM |

| Structure (SMILES) | Potency |
| --- | --- |
| Cc1ccc(SCc2[nH]nc3c2C(C(C)C)C(C#N)=C(N)O3)cc1 (stereo not given) | inconclusive: 29.1 µM [activator, single point] |
| CCCNC(=O)Cn1nc(-c2ccc(F)cc2)c2cnc3ccc(F)cc3c21 | inconclusive: 23.1 µM [activator, single point] |
| Cc1ccc(NC(=O)c2nc3nccc(C)n3n2)c(C)c1 | inconclusive: 2.91 µM [activator, partial curve] |
| Brc1ccc(-c2ccc(/C=N/Nc3nc4ccccc4[nH]3)o2)cc1 | inconclusive: 16.4 µM [activator, partial curve, poor fit] |
| O=C(Nc1ccccc1C(=O)NCCCn1ccnc1)c1ccc(Cl)cc1Cl | inconclusive: 29.1 µM [activator, single point] |
| O=C(Nc1ccc2c(c1)oc1ccccc12)C1CC1 | inconclusive: 2.31 µM [activator, full curve] |
| CCOC(=O)C1=CCC2c3c(c4ccccc4n3C)C(=O)C1N2C(=O)OC(C)(C)C (stereo not given) | active: 14.6 µM |
| Cc1ccc2c(c1)N(CCC(=O)NCc1ccccc1Cl)C(=O)CO2 | inconclusive: 18.4 µM [falling, partial curve, poor fit] |
| Cc1ccc2onc(CC(=O)Nc3ccc(C(C)C)cc3)c2c1 | inconclusive: 16.4 µM [falling, single point] |
| COc1ccc(NC(=O)c2cccc(N3C(=O)C4C5C=CC(C5)C4C3=O)c2)cc1 (stereo not given) | inactive |
| CCOC(=O)/C=C1\SCC(=O)N1CCOc1cccc(Br)c1 | inconclusive: 8.2 µM [falling, partial curve, poor fit] |
| COc1ccc(-c2nc(CCNS(=O)(=O)c3ccc4c(c3)OCCO4)cs2)cc1 | inconclusive: 29.1 µM [falling, single point] |
| CC(=O)Cc1nsc(Nc2ccc(C)cc2)n1 | inconclusive: 2.06 µM [activator, full curve] |
| Cc1ccc(Cl)cc1N(C)C(=O)c1cn(C2CCCCC2)c(=O)c2c1c1ccccc1n2C | inconclusive: 23.1 µM [falling, single point] |
| CC(OC(=O)CC1Sc2ccccc2NC1=O)C(=O)NC1CCCC1 (stereo not given) | inactive |
| Cc1ccc(CNc2ccc(N3CCOCC3)c(C(=O)O)c2)s1 | inconclusive: 29.1 µM [activator, single point] |
| O=C(O)c1cccc(N2C(=O)/C(=C/c3ccc(SCc4ccc(Cl)cc4)o3)SC2=S)c1 | inconclusive: 23.1 µM [falling, single point] |
| CCN(Cc1ccccc1)S(=O)(=O)c1ccc2c(c1)CC(C)N2C(=O)C1CCC1 (stereo not given) | inconclusive: 29.1 µM [falling, single point] |
| COc1ccc(-n2c(N)c(C#N)c3ccc([N+](=O)[O-])cc3c2=O)cc1 | inconclusive: 10.3 µM [activator, partial curve, poor fit] |
| Fc1cccc(Cl)c1CSc1ccc(-c2ccco2)nn1 | inconclusive: 9.2 µM [activator, partial curve] |
| CCOc1cc2c(cc1O)C(=NO)CC1C2CCC2(C)C(O)CCC12 (stereo not given) | inconclusive: 2.91 µM [activator, partial curve] |

An excerpt of these results, with bars between the fields:
Structure (SMILES) | Potency
Cc1ccc(SCc2[nH]nc3c2C(C(C)C)C(C#N)=C(N)O3)cc1 (stereo not given) | inconclusive: 29.1 µM [activator, single point]
Cc1ccc(NC(=O)c2nc3nccc(C)n3n2)c(C)c1 | inconclusive: 2.91 µM [activator, partial curve]
